From publication PMC10275998

Sequences of proteins named here, by UniProt entry; tags and fusion partners are left off. A change or cut given only in a name is not applied to a line headed by its entry.
UniProt Q9FLP5: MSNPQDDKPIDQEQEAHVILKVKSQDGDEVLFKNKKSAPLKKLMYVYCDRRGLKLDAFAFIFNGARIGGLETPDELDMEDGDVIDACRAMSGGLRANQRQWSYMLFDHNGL
UniProt P93002: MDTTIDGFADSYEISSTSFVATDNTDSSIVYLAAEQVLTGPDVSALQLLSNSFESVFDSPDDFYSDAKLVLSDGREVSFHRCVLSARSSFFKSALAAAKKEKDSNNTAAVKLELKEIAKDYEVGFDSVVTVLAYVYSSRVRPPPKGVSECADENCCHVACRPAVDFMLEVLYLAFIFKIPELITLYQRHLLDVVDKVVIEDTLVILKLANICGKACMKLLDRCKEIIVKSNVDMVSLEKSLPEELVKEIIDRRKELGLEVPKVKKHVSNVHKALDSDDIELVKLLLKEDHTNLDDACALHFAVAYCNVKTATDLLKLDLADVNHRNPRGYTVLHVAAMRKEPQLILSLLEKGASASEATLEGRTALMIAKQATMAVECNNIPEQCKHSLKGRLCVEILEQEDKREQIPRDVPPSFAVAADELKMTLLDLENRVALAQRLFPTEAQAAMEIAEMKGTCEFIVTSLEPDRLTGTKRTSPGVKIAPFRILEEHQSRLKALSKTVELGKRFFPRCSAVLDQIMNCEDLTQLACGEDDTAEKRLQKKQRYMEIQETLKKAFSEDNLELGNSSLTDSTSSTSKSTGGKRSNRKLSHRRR

Assays:
[1] = biological target: SUMO3 (Arabidopsis), BiFC fusion (Arabidopsis) (UniProt Q9FLP5); assay: split reporter; competitive BiFC in N. benthamiana: NPR1 with SUMO3 or SUMO3ΔGG in the presence of NIb, NIb_(sim2) or SUMO1; nuclear YFP signal intensity
[2] = biological target: sumoylation-defective mutant of SUMO3 (SUMOΔGG), BiFC fusion (Arabidopsis) (UniProt Q9FLP5); assay: as above
[3] = biological target: FLAG-4×Myc-SUMO3 (Arabidopsis) (Arabidopsis) (UniProt Q9FLP5); assay: co-IP; transient expression assay, SUMO3 and NPR1 in the presence and absence of NIb (Supplementary Fig. 11a)
[4] = biological target: cLUC-SUMO3 (Arabidopsis) (Arabidopsis) (UniProt Q9FLP5); assay: split reporter; competitive split-luciferase in N. benthamiana leaves with a co-expressed competitor (NIb, NIb_(sim2), other potyviral NIbs, SUMO1 or GUS); 60 hpi, 10 μM D-luciferin
[5] = biological target: sumoylation-defective mutant of SUMO3 (SUMOΔGG), split-luciferase fusion (Arabidopsis) (UniProt Q9FLP5); assay: as above

N-terminal segment of YFP (YN)-fused Arabidopsis NPR1 (from UniProt P93002 1-593)
binding [1]: binds
binding [2]: binds

NPR1-YFP (Arabidopsis) (from UniProt P93002 1-593)
binding [3]: binds

NPR1-nLUC (Arabidopsis) (from UniProt P93002 1-593)
binding [4]: binds
binding [5]: binds

No constants are given. Whether binding was seen depends on the method and setting. Binding seen in cells or lysates may run through a third protein. Binding can be weak; no strength is given.
